{"sequences": {"note": "Protein sequences, listed by entry. Tags and fused reporters are not part of them. Lines headed by an entry give the natural chain unless they say otherwise; changes in a name come on top.", "UniProt Q96B45": "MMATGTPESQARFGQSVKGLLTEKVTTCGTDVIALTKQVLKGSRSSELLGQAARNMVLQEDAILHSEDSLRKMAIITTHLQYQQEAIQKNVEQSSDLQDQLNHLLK", "UniProt P98194": "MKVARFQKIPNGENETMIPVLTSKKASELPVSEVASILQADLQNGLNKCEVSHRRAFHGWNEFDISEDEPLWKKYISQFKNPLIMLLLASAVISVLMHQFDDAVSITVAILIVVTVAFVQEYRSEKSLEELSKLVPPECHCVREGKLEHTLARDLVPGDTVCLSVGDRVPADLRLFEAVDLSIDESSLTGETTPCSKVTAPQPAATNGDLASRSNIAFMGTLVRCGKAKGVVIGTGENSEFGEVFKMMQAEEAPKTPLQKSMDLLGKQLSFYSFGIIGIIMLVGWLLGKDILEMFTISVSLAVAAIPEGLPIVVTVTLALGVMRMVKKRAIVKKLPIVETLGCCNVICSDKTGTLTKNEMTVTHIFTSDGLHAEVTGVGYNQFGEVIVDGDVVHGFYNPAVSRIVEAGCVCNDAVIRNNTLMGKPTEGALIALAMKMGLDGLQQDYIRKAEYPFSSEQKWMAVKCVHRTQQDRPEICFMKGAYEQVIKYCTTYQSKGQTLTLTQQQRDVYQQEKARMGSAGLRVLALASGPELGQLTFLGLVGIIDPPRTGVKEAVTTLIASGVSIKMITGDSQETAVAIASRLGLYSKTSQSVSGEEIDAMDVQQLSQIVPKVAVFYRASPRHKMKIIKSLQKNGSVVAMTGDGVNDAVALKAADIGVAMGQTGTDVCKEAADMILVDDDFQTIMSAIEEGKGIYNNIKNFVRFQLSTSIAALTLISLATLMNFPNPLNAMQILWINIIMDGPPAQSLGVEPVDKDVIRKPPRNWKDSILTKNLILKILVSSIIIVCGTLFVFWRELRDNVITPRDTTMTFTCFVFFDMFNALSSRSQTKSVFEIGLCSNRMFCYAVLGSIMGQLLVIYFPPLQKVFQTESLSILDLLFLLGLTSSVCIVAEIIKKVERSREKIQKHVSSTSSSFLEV", "UniProt Q9UI12, whole entry": "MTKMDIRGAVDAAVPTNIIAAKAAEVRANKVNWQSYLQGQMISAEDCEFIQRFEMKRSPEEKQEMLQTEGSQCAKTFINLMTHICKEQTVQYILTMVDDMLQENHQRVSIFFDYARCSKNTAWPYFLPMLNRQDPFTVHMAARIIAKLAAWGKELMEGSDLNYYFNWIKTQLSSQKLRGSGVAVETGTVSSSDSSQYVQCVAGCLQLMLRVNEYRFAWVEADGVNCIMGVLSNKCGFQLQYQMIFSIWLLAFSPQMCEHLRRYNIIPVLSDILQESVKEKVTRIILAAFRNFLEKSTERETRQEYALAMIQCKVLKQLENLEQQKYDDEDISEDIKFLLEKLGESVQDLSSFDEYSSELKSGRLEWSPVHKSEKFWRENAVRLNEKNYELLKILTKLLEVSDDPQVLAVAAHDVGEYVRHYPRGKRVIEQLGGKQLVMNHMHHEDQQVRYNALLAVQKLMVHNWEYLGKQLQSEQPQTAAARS", "UniProt P10415, whole entry": "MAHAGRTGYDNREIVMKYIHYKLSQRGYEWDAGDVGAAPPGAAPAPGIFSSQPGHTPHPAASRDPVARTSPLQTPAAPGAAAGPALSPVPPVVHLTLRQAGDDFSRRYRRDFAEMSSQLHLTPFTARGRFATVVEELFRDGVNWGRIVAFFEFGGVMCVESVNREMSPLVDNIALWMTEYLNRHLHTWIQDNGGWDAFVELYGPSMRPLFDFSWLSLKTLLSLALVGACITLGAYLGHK", "UniProt Q96NB1": "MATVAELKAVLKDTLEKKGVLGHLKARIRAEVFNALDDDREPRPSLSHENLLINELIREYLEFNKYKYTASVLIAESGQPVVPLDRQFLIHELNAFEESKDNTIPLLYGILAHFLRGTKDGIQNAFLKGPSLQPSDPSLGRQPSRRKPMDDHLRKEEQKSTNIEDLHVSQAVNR", "UniProt O43683": "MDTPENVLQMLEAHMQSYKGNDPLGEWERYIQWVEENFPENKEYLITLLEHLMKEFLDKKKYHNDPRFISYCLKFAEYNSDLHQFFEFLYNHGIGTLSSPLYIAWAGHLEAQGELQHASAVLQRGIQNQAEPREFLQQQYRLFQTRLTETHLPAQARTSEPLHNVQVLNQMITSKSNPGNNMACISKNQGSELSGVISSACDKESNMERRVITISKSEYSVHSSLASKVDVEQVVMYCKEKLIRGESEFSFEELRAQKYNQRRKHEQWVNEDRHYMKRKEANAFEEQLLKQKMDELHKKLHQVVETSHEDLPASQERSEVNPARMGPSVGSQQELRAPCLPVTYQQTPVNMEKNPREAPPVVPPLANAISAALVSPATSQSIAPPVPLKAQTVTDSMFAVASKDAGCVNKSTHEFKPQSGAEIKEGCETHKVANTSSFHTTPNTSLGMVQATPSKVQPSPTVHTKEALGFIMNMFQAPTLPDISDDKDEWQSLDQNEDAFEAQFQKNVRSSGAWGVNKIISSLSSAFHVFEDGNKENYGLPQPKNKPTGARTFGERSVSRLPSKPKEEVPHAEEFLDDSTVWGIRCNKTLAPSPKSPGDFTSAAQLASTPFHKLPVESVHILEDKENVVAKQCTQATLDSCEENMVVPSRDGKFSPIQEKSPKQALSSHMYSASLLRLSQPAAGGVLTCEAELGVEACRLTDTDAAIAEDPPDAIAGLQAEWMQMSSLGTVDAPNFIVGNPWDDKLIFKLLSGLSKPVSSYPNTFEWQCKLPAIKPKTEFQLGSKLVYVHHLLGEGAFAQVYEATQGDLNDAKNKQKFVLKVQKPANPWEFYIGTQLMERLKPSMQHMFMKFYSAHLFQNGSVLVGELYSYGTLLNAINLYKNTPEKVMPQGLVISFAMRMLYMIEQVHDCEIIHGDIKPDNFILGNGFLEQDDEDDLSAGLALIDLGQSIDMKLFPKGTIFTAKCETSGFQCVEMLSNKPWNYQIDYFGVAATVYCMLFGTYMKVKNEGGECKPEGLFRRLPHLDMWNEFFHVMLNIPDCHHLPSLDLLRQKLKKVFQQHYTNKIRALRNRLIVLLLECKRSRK", "UniProt Q5W111": "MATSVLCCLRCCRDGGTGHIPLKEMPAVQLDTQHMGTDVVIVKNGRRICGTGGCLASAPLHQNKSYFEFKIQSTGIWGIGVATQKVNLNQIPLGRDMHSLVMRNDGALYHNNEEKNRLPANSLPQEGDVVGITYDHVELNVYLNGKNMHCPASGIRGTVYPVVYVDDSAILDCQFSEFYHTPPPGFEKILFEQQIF", "UniProt Q6ZNW5": "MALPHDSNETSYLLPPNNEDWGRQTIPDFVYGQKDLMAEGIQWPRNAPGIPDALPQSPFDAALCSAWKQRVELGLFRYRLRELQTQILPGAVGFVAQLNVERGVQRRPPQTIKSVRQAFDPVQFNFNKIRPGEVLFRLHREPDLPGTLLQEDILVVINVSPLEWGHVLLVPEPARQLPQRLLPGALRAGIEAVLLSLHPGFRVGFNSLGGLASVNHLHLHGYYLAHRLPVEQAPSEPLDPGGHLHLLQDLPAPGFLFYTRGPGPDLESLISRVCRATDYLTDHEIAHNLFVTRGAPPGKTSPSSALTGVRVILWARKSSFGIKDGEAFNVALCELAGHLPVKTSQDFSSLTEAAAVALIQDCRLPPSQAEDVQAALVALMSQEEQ", "UniProt O95870": "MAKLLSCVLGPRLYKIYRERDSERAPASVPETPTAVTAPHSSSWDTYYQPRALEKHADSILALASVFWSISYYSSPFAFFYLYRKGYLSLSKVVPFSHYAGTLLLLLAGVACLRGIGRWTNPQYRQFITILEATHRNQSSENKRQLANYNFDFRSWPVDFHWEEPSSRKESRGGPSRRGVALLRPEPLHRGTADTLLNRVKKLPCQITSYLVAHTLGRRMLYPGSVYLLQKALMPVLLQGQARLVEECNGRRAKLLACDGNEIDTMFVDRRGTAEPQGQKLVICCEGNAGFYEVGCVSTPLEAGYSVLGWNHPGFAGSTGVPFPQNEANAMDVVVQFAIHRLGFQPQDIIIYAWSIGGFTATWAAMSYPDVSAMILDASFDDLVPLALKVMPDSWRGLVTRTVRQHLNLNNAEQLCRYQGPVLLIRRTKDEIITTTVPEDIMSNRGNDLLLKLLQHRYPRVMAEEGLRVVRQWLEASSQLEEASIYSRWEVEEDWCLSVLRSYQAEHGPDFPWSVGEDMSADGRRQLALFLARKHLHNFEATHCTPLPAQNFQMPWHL", "UniProt Q99700, whole entry": "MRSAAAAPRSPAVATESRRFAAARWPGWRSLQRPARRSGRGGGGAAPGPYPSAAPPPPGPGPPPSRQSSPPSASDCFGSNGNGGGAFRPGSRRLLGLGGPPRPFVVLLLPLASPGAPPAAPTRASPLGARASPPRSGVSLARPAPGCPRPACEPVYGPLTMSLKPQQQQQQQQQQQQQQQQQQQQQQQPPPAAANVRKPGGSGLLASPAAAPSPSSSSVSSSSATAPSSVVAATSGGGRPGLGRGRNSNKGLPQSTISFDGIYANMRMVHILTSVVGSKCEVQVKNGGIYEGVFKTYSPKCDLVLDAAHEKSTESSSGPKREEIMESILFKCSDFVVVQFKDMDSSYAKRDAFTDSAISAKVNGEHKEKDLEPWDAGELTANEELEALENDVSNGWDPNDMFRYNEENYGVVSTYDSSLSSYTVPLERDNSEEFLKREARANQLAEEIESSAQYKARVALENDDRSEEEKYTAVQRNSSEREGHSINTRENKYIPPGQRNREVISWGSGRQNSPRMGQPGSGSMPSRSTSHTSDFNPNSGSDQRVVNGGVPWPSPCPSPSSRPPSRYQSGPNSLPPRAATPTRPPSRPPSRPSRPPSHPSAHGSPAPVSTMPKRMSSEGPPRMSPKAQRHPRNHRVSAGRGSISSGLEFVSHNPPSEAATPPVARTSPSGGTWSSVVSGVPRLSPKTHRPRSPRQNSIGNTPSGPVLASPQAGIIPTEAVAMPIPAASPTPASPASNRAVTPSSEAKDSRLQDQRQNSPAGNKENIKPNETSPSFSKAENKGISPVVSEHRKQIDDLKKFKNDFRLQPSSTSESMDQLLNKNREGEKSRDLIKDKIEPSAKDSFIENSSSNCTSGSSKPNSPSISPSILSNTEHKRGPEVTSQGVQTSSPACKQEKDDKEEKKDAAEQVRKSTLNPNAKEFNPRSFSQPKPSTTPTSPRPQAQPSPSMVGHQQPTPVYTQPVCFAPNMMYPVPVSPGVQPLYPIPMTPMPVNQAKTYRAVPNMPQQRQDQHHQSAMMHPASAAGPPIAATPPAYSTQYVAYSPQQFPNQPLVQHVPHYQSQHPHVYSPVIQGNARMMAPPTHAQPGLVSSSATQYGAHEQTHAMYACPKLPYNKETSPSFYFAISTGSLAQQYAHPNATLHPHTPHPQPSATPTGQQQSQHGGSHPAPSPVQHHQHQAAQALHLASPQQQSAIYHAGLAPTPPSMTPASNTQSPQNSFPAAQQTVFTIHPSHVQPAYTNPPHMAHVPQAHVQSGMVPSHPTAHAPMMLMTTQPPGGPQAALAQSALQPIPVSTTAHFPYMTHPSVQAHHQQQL", "UniProt Q8NBF6": "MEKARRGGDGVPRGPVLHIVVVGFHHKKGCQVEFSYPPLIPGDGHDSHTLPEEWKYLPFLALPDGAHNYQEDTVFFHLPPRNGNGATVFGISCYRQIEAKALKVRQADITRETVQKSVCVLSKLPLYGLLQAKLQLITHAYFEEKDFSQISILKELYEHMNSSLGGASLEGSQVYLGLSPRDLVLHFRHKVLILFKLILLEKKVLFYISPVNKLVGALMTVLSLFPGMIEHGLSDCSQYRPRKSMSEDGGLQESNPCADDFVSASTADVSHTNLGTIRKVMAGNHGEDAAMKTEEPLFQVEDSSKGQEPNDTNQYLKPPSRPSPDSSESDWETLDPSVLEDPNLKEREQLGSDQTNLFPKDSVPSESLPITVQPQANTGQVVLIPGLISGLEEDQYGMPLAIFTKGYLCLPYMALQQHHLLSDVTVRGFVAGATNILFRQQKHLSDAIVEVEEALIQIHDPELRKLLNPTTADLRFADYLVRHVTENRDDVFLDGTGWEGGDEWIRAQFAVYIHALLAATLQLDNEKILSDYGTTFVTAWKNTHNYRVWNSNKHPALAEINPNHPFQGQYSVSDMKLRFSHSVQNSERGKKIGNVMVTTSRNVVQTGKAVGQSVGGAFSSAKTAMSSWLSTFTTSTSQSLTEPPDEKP", "UniProt Q96B23": "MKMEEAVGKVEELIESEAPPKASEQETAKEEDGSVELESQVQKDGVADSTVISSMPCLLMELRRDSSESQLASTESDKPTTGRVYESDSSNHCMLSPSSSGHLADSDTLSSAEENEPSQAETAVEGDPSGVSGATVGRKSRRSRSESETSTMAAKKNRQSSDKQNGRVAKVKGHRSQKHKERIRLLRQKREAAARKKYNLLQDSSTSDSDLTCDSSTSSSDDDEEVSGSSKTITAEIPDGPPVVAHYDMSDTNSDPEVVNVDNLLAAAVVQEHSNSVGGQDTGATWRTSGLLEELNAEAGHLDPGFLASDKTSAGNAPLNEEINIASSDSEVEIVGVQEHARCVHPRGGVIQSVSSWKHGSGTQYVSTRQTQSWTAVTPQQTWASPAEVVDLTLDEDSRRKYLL"}, "source": "the supplement of paper PMC7666118", "note": "Some of the results follow."}
{"compound": "COc1ccc(Cn2ccc3cc(C)c(C(=O)NO)cc32)cc1", "assay": "dose-dependent thermal stabilisation call (2D-TPP, DLPTP, 10% FDR) (binary (1 = stabilised)); higher = stabilised by the compound", "conditions": "system: HL-60 intact cells; concentration range 0.04-10 µM", "description": "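2D thermal proteome profiling in intact HL-60 cells treated with BRD-3811 (0, 0.04, 0.29, 2, 10 uM) for 90 min at 37 C, then heated 3 min at one of 12 temperatures (42-63.9 C). Soluble protein was quantified by TMT10 MS. The value is the DLPTP call of the paper: dose-dependent thermal stabilisation over all temperatures at 10% FDR (F-test of a dose-response against a flat model); one experiment, one call per tested protein.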"}
{"target": "BTK (UniProt Q06187)", "dose-dependent thermal stabilisation call": "inactive: 0"}
{"target": "C10ORF32 (UniProt Q96B45)", "dose-dependent thermal stabilisation call": "inactive: 0"}
{"target": "ATP6V1D (UniProt Q9Y5K8)", "dose-dependent thermal stabilisation call": "inactive: 0"}
{"target": "BACH1 (UniProt O14867)", "dose-dependent thermal stabilisation call": "inactive: 0"}
{"target": "BET1 (UniProt O15155)", "dose-dependent thermal stabilisation call": "inactive: 0"}
{"target": "BZW1 (UniProt Q7L1Q6)", "dose-dependent thermal stabilisation call": "inactive: 0"}
{"target": "BRCC3 (UniProt P46736)", "dose-dependent thermal stabilisation call": "inactive: 0"}
{"target": "ATP2C1 (UniProt P98194)", "dose-dependent thermal stabilisation call": "inactive: 0"}
{"target": "BRE (UniProt Q9NXR7)", "dose-dependent thermal stabilisation call": "inactive: 0"}
{"target": "BCL2L1 (UniProt Q07817)", "dose-dependent thermal stabilisation call": "inactive: 0"}
{"target": "ATP6V1H (UniProt Q9UI12)", "dose-dependent thermal stabilisation call": "inactive: 0"}
{"target": "BCL2 (UniProt P10415)", "dose-dependent thermal stabilisation call": "inactive: 0"}
{"target": "C16ORF63 (UniProt Q96NB1)", "dose-dependent thermal stabilisation call": "inactive: 0"}
{"target": "C12ORF5 (UniProt Q9NQ88)", "dose-dependent thermal stabilisation call": "inactive: 0"}
{"target": "BSDC1 (UniProt Q9NW68)", "dose-dependent thermal stabilisation call": "inactive: 0"}
{"target": "C17ORF49 (UniProt Q8IXM2)", "dose-dependent thermal stabilisation call": "inactive: 0"}
{"target": "B3GAT3 (UniProt O94766)", "dose-dependent thermal stabilisation call": "inactive: 0"}
{"target": "BGLAP (UniProt P02818)", "dose-dependent thermal stabilisation call": "inactive: 0"}
{"target": "BUB1 (UniProt O43683)", "dose-dependent thermal stabilisation call": "inactive: 0"}
{"target": "BCL9L (UniProt Q86UU0)", "dose-dependent thermal stabilisation call": "inactive: 0"}
{"target": "C13ORF1 (UniProt Q5W111)", "dose-dependent thermal stabilisation call": "inactive: 0"}
{"target": "C13ORF27 (UniProt Q5JUR7)", "dose-dependent thermal stabilisation call": "inactive: 0"}
{"target": "C15ORF58 (UniProt Q6ZNW5)", "dose-dependent thermal stabilisation call": "inactive: 0"}
{"target": "BAT5 (UniProt O95870)", "dose-dependent thermal stabilisation call": "inactive: 0"}
{"target": "ATP6AP2 (UniProt O75787)", "dose-dependent thermal stabilisation call": "inactive: 0"}
{"target": "C10ORF76 (UniProt Q5T2E6)", "dose-dependent thermal stabilisation call": "inactive: 0"}
{"target": "ATXN2 (UniProt Q99700)", "dose-dependent thermal stabilisation call": "inactive: 0"}
{"target": "BDH2 (UniProt Q9BUT1)", "dose-dependent thermal stabilisation call": "inactive: 0"}
{"target": "ATP5S (UniProt Q99766)", "dose-dependent thermal stabilisation call": "inactive: 0"}
{"target": "BAG2 (UniProt O95816)", "dose-dependent thermal stabilisation call": "inactive: 0"}
{"target": "BAT1", "dose-dependent thermal stabilisation call": "inactive: 0"}
{"target": "C19ORF53 (UniProt Q9UNZ5)", "dose-dependent thermal stabilisation call": "inactive: 0"}
{"target": "AVL9 (UniProt Q8NBF6)", "dose-dependent thermal stabilisation call": "inactive: 0"}
{"target": "BCLAF1 (UniProt Q9NYF8)", "dose-dependent thermal stabilisation call": "inactive: 0"}
{"target": "C18ORF25 (UniProt Q96B23)", "dose-dependent thermal stabilisation call": "inactive: 0"}
{"target": "BBC3", "dose-dependent thermal stabilisation call": "inactive: 0"}
